Results on one substance are retold here after article PMC11884560.

Protein sequences, listed by entry. Tags and fused reporters are not part of them. Residues count along the entry.
UniProt Q14126, residues 50-1118: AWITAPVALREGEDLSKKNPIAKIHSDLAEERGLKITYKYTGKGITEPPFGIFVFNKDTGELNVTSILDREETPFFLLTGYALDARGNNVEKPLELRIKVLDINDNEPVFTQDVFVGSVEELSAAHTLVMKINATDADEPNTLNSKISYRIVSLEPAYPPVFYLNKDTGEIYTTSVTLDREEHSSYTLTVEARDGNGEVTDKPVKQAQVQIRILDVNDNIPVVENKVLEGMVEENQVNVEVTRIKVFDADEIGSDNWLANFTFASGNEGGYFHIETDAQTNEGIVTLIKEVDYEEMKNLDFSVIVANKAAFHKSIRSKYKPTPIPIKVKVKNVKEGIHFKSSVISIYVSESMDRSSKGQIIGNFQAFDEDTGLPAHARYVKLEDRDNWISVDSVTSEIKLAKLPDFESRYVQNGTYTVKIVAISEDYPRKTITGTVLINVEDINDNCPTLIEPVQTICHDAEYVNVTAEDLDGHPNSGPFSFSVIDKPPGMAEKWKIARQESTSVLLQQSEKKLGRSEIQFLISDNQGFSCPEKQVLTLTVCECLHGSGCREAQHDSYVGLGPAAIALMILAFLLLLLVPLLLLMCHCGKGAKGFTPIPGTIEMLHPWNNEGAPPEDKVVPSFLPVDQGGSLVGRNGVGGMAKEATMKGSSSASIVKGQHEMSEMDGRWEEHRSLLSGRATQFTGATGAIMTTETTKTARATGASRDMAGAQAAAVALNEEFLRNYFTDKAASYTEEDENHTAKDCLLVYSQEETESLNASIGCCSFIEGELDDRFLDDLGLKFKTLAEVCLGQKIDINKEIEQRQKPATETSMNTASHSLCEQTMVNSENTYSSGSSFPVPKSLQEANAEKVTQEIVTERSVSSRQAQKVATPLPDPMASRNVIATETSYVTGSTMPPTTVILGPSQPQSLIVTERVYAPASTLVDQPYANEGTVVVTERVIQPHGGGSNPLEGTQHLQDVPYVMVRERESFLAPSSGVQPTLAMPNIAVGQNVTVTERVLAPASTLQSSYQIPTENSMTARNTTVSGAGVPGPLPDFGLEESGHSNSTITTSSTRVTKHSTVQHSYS

Results are given in words; binding and its absence hold for the method and conditions named. In cells and extracts the contact can be indirect. Some entries that bind do so weakly or less than the wild type. Sequences can lack the tags named with a protein.

For this assay, the target named is T1, Siglec‐9‐Fc (human) (UniProt Q9Y336).
T1 sequence: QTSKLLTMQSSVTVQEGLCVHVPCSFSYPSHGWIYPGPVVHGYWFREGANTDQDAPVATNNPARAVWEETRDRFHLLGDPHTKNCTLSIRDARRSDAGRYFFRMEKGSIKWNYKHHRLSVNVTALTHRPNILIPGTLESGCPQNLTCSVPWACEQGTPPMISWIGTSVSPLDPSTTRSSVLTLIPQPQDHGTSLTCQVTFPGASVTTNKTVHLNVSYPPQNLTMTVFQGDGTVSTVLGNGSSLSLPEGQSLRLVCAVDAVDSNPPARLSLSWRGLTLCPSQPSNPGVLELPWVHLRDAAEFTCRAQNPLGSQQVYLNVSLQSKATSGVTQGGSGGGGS
The assay can be described thus: pull-down; purified S9Fc, mS9Fc or Siglec‐7 as bait; lysate of HEK293T cells overexpressing full‐length DSG2 or DSG2‐5Q, also with tunicamycin or neuraminidase treatment; western blot; only the target purified.

Regarding “Desmoglein 2, full length, overexpressed in HEK293T (from UniProt Q14126 50-1118)”, the binding result was “binds”.
